Patent US9261497B2, “Method of treating cancer with modulators of SCFSkp2” (New York University, priority 2012, dated 2016)
Some entries share one result that the patent states for a list of compounds. For at least one compound, name, drawing or mass did not settle the structure.

Tested on: p27 in 501 Mel cells
Test: Cycloheximide p27 half-life in 501 Mel cells
Type: cell-based, human
Conditions: pretreated 16 hours with 10 μM inhibitor, vehicle half-life 1 hour
Description: To assess the mechanism of p27 induction, cycloheximide half-lives were analyzed in 501 Mel cell lines pretreated with each inhibitor (10 μM) or 0.1% DMSO (vehicle). p27 degraded rapidly with a half-life of 1 hour with vehicle, and this rate was slowed by the inhibitors (FIG. 4C). […] Protein levels of Skp2 and Skp1 remained constant.
Whole cell extracts were prepared and immunoblotted as previously described Dorrello et al., “S6K1- and betaTRCP-mediated Degradation of PDCD4 Promotes Protein Translation and Cell Growth,” Science 314:467-471 (2006), which is hereby incorporated by reference in its entirety. For knockdown of Skp2 or p27, shRNAs were induced with 2 ng/ml doxycycline for 48 hours, with the last 16 hours co-treated with 0.1% Vehicle or 10 μM inhibitors as indicated. For cycloheximide chase, cells were pretreated 16 h with 0.1% Vehicle or 10 μM inhibitors, followed by 20 ng/ml cycloheximide (Sigma) and whole cell extracts collected for each time point. 20 ng/ml cycloheximide (Sigma) was added to each plate and whole cell extract was collected for each time point. Scanning densitometry was performed on immunoblots using Image J software. For cell cycle analysis, cells were treated with 0.1% Vehicle or 10 μM inhibitors for 16 h. […] Signal was detected using the Becton Dickson LSRII flow cytometer and cell cycle profiles were analyzed with FloJo.

## O=C(O)COc1ccc(Br)cc1C=C1SC(=S)N(Cc2cccnc2)C1=O [Compound C1]
  p27 half-life: greater than 5 hours
